{"source": "PubChem BioAssay AID1259297 (Sanger Institute, 2017)", "screen": "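Kinases whose loss kills cells on their own or with targeted drugs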 (primary screen)", "cells": "human RCM1 colorectal cancer cell line", "reagent": "siRNA pool against human genes", "conditions": "separate arms: DMSO vehicle, or one anchor drug at a mild dose: BYL719 1 µM, cetuximab 5 µg/ml, trametinib 10 nM", "read-out": "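Viability per well relative to a non-targeting pool, mean of replicates; robust z-score for knock-down alone; synergy score with BYL719, cetuximab or trametinib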", "reading the numbers": "viability z-score, knock-down alone: higher = more viable cells than non-targeting controls; viability, knock-down alone (DMSO): higher = more viable cells", "units": "viability, knock-down alone (DMSO) in fraction of control", "rule for the call": "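Essential when the viability robust z-score for knock-down alone is below -3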", "meaning of the calls": "active = essential when knocked down alone; inactive = no clear loss of viability alone", "note": "Here is a random part of 794 reagents tested. 13 of all reagents (1.6%) were called active. 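Calls reflect knock-down without drug only; drug synergy is judged separately, with scores above 0.15 counted as synergy.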 No viability above 1 is reported: the scale is capped. Not all columns of the deposit are shown. Reagent sequences are not shown. Not given: the amount of reagent, the time to read-out."}
{"gene": "ITPKC (GeneID 80271)", "viability z-score, knock-down alone": -0.382, "viability, knock-down alone (DMSO)": 0.881, "Outcome": "inactive"}
{"gene": "STK38 (GeneID 11329)", "viability z-score, knock-down alone": -1.42, "viability, knock-down alone (DMSO)": 0.785, "Outcome": "inactive"}
{"gene": "MAP2K5 (GeneID 5607)", "viability z-score, knock-down alone": 0.582, "viability, knock-down alone (DMSO)": 0.971, "Outcome": "inactive"}
{"gene": "MERTK (GeneID 10461)", "viability z-score, knock-down alone": -0.0826, "viability, knock-down alone (DMSO)": 0.909, "Outcome": "inactive"}
{"gene": "ADPGK (GeneID 83440)", "viability z-score, knock-down alone": 0.663, "viability, knock-down alone (DMSO)": 0.978, "Outcome": "inactive"}
{"gene": "PFKFB3 (GeneID 5209)", "viability z-score, knock-down alone": -1.53, "viability, knock-down alone (DMSO)": 0.775, "Outcome": "inactive"}
{"gene": "MKNK2 (GeneID 2872)", "viability z-score, knock-down alone": -0.317, "viability, knock-down alone (DMSO)": 0.887, "Outcome": "inactive"}
{"gene": "TAOK3 (GeneID 51347)", "viability z-score, knock-down alone": -0.218, "viability, knock-down alone (DMSO)": 0.896, "Outcome": "inactive"}
{"gene": "CDK16 (GeneID 5127)", "viability z-score, knock-down alone": -0.114, "viability, knock-down alone (DMSO)": 0.906, "Outcome": "inactive"}
{"gene": "PIKFYVE (GeneID 200576)", "viability z-score, knock-down alone": 0.9, "viability, knock-down alone (DMSO)": 1, "Outcome": "inactive"}
{"gene": "DSTYK (GeneID 25778)", "viability z-score, knock-down alone": -0.0955, "viability, knock-down alone (DMSO)": 0.908, "Outcome": "inactive"}
{"gene": "ULK2 (GeneID 9706)", "viability z-score, knock-down alone": -0.407, "viability, knock-down alone (DMSO)": 0.879, "Outcome": "inactive"}
{"gene": "CDK5R1 (GeneID 8851)", "viability z-score, knock-down alone": 0.171, "viability, knock-down alone (DMSO)": 0.932, "Outcome": "inactive"}
{"gene": "ADGRL2 (GeneID 23266)", "viability z-score, knock-down alone": 0.419, "viability, knock-down alone (DMSO)": 0.955, "Outcome": "inactive"}
{"gene": "CAMK1D (GeneID 57118)", "viability z-score, knock-down alone": 0.9, "viability, knock-down alone (DMSO)": 1, "Outcome": "inactive"}
{"gene": "LYN (GeneID 4067)", "viability z-score, knock-down alone": 0.9, "viability, knock-down alone (DMSO)": 1, "Outcome": "inactive"}
{"gene": "NTRK3 (GeneID 4916)", "viability z-score, knock-down alone": 0.9, "viability, knock-down alone (DMSO)": 1, "Outcome": "inactive"}

The list goes on; the last 4 above are carried over.
{"gene": "ADGRL2 (GeneID 23266)", "viability z-score, knock-down alone": 0.419, "viability, knock-down alone (DMSO)": 0.955, "Outcome": "inactive"}
{"gene": "CAMK1D (GeneID 57118)", "viability z-score, knock-down alone": 0.9, "viability, knock-down alone (DMSO)": 1, "Outcome": "inactive"}
{"gene": "LYN (GeneID 4067)", "viability z-score, knock-down alone": 0.9, "viability, knock-down alone (DMSO)": 1, "Outcome": "inactive"}
{"gene": "NTRK3 (GeneID 4916)", "viability z-score, knock-down alone": 0.9, "viability, knock-down alone (DMSO)": 1, "Outcome": "inactive"}
{"gene": "CUL1 (GeneID 8454)", "viability z-score, knock-down alone": 0.9, "viability, knock-down alone (DMSO)": 1, "Outcome": "inactive"}
{"gene": "ITPK1 (GeneID 3705)", "viability z-score, knock-down alone": 0.9, "viability, knock-down alone (DMSO)": 1, "Outcome": "inactive"}
{"gene": "BCKDK (GeneID 10295)", "viability z-score, knock-down alone": 0.9, "viability, knock-down alone (DMSO)": 1, "Outcome": "inactive"}
{"gene": "EFNB3 (GeneID 1949)", "viability z-score, knock-down alone": -1.81, "viability, knock-down alone (DMSO)": 0.748, "Outcome": "inactive"}
{"gene": "NME5 (GeneID 8382)", "viability z-score, knock-down alone": 0.9, "viability, knock-down alone (DMSO)": 1, "Outcome": "inactive"}
{"gene": "GUCY2C (GeneID 2984)", "viability z-score, knock-down alone": 0.9, "viability, knock-down alone (DMSO)": 1, "Outcome": "inactive"}
{"gene": "RIPK4 (GeneID 54101)", "viability z-score, knock-down alone": 0.9, "viability, knock-down alone (DMSO)": 1, "Outcome": "inactive"}
{"gene": "WT1 (GeneID 7490)", "viability z-score, knock-down alone": 0.622, "viability, knock-down alone (DMSO)": 0.974, "Outcome": "inactive"}
{"gene": "NEK1 (GeneID 4750)", "viability z-score, knock-down alone": 0.9, "viability, knock-down alone (DMSO)": 1, "Outcome": "inactive"}
{"gene": "CAMKK1 (GeneID 84254)", "viability z-score, knock-down alone": 0.9, "viability, knock-down alone (DMSO)": 1, "Outcome": "inactive"}
{"gene": "MAPK8 (GeneID 5599)", "viability z-score, knock-down alone": 0.713, "viability, knock-down alone (DMSO)": 0.983, "Outcome": "inactive"}
